# According to publication PMC6219760:
# These are yes or no findings as the source states them, for the method shown. In cells and extracts the contact can be indirect. Here binding means that the protein was enriched with, or labelled near, the bait; the list need not be complete. No binding means not detected with the bait. Tags and fused reporters may be left off the sequences shown.
# T1: Buc-GFP (Bucky ball fused to eGFP), from transgenic zebrafish (zebrafish) (UniProt H0WFA5)
# T1 sequence: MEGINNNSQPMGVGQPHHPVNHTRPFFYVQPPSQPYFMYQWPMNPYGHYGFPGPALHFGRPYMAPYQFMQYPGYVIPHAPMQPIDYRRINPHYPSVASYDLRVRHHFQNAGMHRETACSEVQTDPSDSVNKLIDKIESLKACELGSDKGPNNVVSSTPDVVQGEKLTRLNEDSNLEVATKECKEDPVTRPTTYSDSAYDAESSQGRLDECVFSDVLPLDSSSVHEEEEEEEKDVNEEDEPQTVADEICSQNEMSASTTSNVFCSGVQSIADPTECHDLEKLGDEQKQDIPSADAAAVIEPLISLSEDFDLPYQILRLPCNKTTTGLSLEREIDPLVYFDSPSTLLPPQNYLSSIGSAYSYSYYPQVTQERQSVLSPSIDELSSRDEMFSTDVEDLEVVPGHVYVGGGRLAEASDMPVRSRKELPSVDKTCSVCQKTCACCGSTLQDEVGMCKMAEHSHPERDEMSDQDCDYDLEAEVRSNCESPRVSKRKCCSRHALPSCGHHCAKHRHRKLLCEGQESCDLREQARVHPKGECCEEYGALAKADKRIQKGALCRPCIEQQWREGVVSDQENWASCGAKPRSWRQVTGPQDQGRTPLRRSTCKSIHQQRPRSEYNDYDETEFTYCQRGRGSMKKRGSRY
# B1: Ziwi (piwil1), endogenous in zebrafish embryos (protein, UniProt Q8UVX0 1-858)
# chain: MTGRARARSRGRGRGQEPAAPGAQPPVSQEAAKPVVSTPSEGQLVGRGRQKPAPGAMSEEAMLQISAGFQQVKIGERGGRRRDFHDSGVHTRQLMEHVKESKTGVSGTAIELRANFMRLLSRPMWALYQYHVDYKPPMESRRLRSALLFQHEETLGKAHTFDGAILFLPNKLRNAETVLCSETRNGEKVEITVTLTNELPPSSPVCLQFYNILFRRILRILNMQQIGRHYYNPDDPFNIPQHRLTIWPGFMTTILQYESSIMLCSDVSHKVLRSETVLDFMYSLRQQCGDQRFPEACTKELVGLIILTKYNNKTYRIDDIAWDHTPNNTFKKGDTEISFKNYFKSQYGLDITDGNQVLLVSHVKRLGPSGRPPPGPAMLVPEFCYLTGLTDKMRADFNIMKDLASHTRLSPEQREGRINRLISNINRNGDVQNELTTWGLSFENKLLSLNGRVLPSERIIQGGRAFEYNPWTADWSKEMRGLPLISCMSLDNWLMFYTRRNADVAQSLLQTLNKVSGPMGIRMQRAVMIEYEDRQESLLRALQQNVARETQMVVVILPTNRKDKYDCVKKYLCVDCPTPSQCVVSRTISKPQALMTVATKIALQMNCKMGGELWSVEIPLRQLMIVGIDCYHDTAAGKRSIGAMVASLNQGMSRWFSKCVLQNRGQEIIDALKGSLQGALKAYLKYNNSLPSRIIVYRDGVGDGMLQSVVDYEVPQIMQSIKTMGQDYEPKLSVVVVKKRISSRFFARIDGKIANPPPGTVIDTEVTRPEWYDFFIVSQAVRFGCVAPTHYNVVFDNSGLKPDHMQRLTYKLCHMYYNWQGIVRVPAPCQYAHKLAFLVGQSIHKEPNMNLDDFLYYL
# B2: Valois homolog (Wdr77/Mep50), endogenous in zebrafish embryos (protein, UniProt Q7SZR9 1-319)
# chain: MLKENPWNIPVTAPACMDKHLDAIDYRKDGVLLLAASSLSGRCWQGSLWVYSDPKLAPSEGFCRAGVQTEAGVSDVHWISDRALLLASDSGSVELWDLAEDERLLVNRFSRQEHGDVVTGVSACVGGRTAVSCSADCRIKVWDLNQETVINSYNAHSQPVSGVSCSPVDEFLFLSCAQDGRLLLWDQRKDKPATRIDVQSPSCSPTAVVWHPQHSSTIAYGDELGRVTVKDLKASDGVKTTHTHRRRVNRLAYSDDSAALLASISDDCSVAVHTAELREIFRDRRHQDFVRGVCWSPGGSSALTTVGWDHQVLHHTPEH
# B3: Vasa (Ddx4), endogenous in zebrafish embryos (protein, UniProt O42107 1-716)
# chain: MDDWEEDQSPVVSCSSGFGLGSNGSDGGFKSFYTGGAGNDKSNSEGTEGSSWKMTGDSFRGRGGRGGSRGGRGGFSGFKSEIDENGSDGGWNGGESRGRGRGGFRGGFRSGSRDENDENRNDDGWKGGESRGRGRGGFGGSFRGGFRDGGNEDTGRRGFGRENNENGNDEGGEGRGRGRGGFRGGFRDGGGDESGKRGFGRGGFRGRNEEVFSKVTTADKLDQEGSENAGPKVVYVPPPPPEEESSIFSHYATGINFDKYDDILVDVSGSNPPKAIMTFEEAGLCDSLSKNVSKSGYVKPTPVQKHGIPIISAGRDLMACAQTGSGKTAAFLLPILQRFMTDGVAASKFSEIQEPEAIIVAPTRELINQIYLEARKFAYGTCVRPVVVYGGINTGYTIREVLKGCNVLCATPGRLHDLIGRGKIGLSKVRYLVLDEADRMLDMGFEPEMRKLVASPGMPSKEERQTLMFSATYPEDIQRMAADFLKVDYIFLAVGVVGGACSDVEQTVVQVDQYSKRDQLLELLRATGNERTMVFVETKRSADFIATFLCQEKISTTSIHGDREQREREKALSDFRLGHCPVLVATSVAARGLDIEQVQHVVNFDMPSSIDEYVHRIGRTGRCGNTGRAVSFFNPESDTPLARSLVKVLSGAQQVVPKWLEEVAFSAHGTTGFNPRGKVFASTDSRKGGSFKSDEPPPSQTSAPSAAAAADDEEWE
# Molecular target: T1, Buc-GFP (Bucky ball fused to eGFP), from transgenic zebrafish (zebrafish)
# Experiment: affinity purification with mass spectrometry; Buc-GFP held on GFP-Trap magnetic beads from extracts of Buc-GFP transgenic zebrafish embryos; GFP-control samples; lysis buffer 10 mM Tris pH 7.5, 150 mM NaCl, 0.5 mM EDTA, 0.5% NP-40
row,binding,Binder
1,no binding,B1
2,binds,B2
3,binds,B3
